Values from PubChem BioAssay AID720505 (Drosophila RNAi Screening Center, 2013).
The deposit covers about 20,000 reagents; shown is a random part of those with a known target gene and a result. Over the whole deposit, about 2,100 (10%) are marked active. 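Raw plate signals without normalisation; calls rest on control-based scores that were not deposited; replicate 2 separates called from uncalled poorly.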 The numbers tell different reagents against one gene apart. The record does not give: the amount of reagent, the time to read-out.

Screen: 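Fly regulators or components of the CRAC channel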 (primary screen)
System: Drosophila S2R+ cells
Knock-down reagent: long dsRNA against Drosophila genes
Conditions: thapsigargin (2 µM) in calcium-free buffer to empty internal stores, then 2 mM calcium added back
Measurement: 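Stores emptied by 2 µM thapsigargin without calcium, then 2 mM calcium re-added; fluo-4 fluorescence followed by FLIPR in 384-well plates, per-well averaged endpoint, raw; two screen passes, some wells retested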
Scale: calcium signal: higher = more calcium entry after store depletion
Active means: 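Knock-downs counted as hits when calcium entry dropped relative to STIM1 positive and Rho1 negative controls present on each plate; roughly 1500 genes called, with reductions of differing size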
Calls: active = called as lowering calcium entry; inactive = not called

no.	gene	reagent no.	calcium signal, replicate 1	calcium signal, replicate 2	outcome
1	CG12112	1	123	94.3	inactive
2	CG34354	1	148	207	inactive
3	CG34354	2	165	148	inactive
4	CG34354	3	167	115	inactive
5	CG34354	4	96.2	137	inactive
6	CG16734	1	92.8	211	inactive
7	Snmp1 (Sensory neuron membrane protein 1)	1	174	188	inactive
8	AttD (Attacin-D)	1	79.5	235	inactive
9	VhaM9.7-d (Vacuolar H[+] ATPase M9.7 subunit d)	1	121	153	inactive
10	Ire1 (Inositol-requiring enzyme-1)	1	161	152	inactive
11	Mct1 (Monocarboxylate transporter 1)	1	110	110	inactive
12	Pabp2	1	61.5	62.5	active
13	Oatp33Ea (Organic anion transporting polypeptide 33Ea)	1	98.6	132	inactive
14	CG11977	1	80	148	inactive
15	Hs2st (Heparan sulfate 2-O-sulfotransferase)	1	99.3	101	inactive
16	ATPsynD (ATP synthase, subunit D)	1	119	150	inactive
17	Oseg4 (Outer segment 4)	1	177	126	inactive
18	CG30082	1	70.2	124	inactive
19	spz6 (spatzle 6)	1	69	131	active
20	CG33003	1	80.2	161	inactive
21	Polr3A (RNA polymerase III subunit A)	1	90.5	92.4	active
22	ft (fat)	1	145	227	inactive
23	CG5966	1	151	125	inactive
24	CG42811	1	231	121	inactive
25	CG13616	1	211	151	inactive
26	CG17267	1	212	140	inactive
27	CG10650	1	100	182	inactive
28	CG30088	1	182	133	inactive

The list goes on, starting with the last 6 of the part before.
no.	gene	reagent no.	calcium signal, replicate 1	calcium signal, replicate 2	outcome
23	CG5966	1	151	125	inactive
24	CG42811	1	231	121	inactive
25	CG13616	1	211	151	inactive
26	CG17267	1	212	140	inactive
27	CG10650	1	100	182	inactive
28	CG30088	1	182	133	inactive
29	CG45067	1	100	102	inactive
30	CG12054	1	62	82.2	active
31	CG12054	2	118	151	inactive
32	CG12963	1	112	137	inactive
33	CG12963	2	113	170	inactive
34	Mic26-27 (MICOS subunit 26/27)	1	146	235	inactive
35	Takl2 (Tak1-like 2)	1	148	89.9	inactive
36	CG14692	1	148	116	inactive
37	rho-4 (rhomboid-4)	1	183	104	inactive
38	rho-4 (rhomboid-4)	2	114	91.6	inactive
39	eIF3m (eukaryotic translation initiation factor 3 subunit m)	1	106	156	inactive
40	Topors (Topoisomerase I-interacting protein)	1	131	129	inactive
41	Cyp1 (Cyclophilin 1)	1	125	106	inactive
42	CG1677	1	245	104	inactive
43	Madm (MLF1-adaptor molecule)	1	83.4	160	active
44	UQCR-C1 (Ubiquinol-cytochrome c reductase core protein 1)	1	80.6	74.3	inactive
45	Idgf2 (Imaginal disc growth factor 2)	1	105	102	inactive
46	rl (rolled)	1	62.5	158	inactive
47	rl (rolled)	2	204	87.9	inactive
48	rl (rolled)	3	129	80.8	inactive
49	CG14937	1	204	169	inactive
50	IFT54 (Intraflagellar transport 54)	1	97.3	125	inactive
51	Osi22 (Osiris 22)	1	124	128	inactive
52	Grl36b (Gustatory receptor-like 36b)	1	75.5	208	inactive
53	SPR (Sex peptide receptor)	1	133	92.3	inactive
54	SPR (Sex peptide receptor)	2	166	132	inactive
55	SPR (Sex peptide receptor)	3	179	97.5	inactive
56	ScsbetaA (Succinyl-coenzyme A synthetase beta subunit, ADP-forming)	1	96.5	135	inactive
